From patent publication US11602538B2, “Prophylaxis and treatment of cognitive dysfunction and decline” (The Florey Institute of Neuroscience and Mental Health, priority 2017, dated 2023)

Assay: LA-ICPMS brain metal analysis (zinc, copper, iron) after TBI
Type: in vivo, mouse
Experimental: Three groups of animals were subjected to TBI as separate experiments. The first group of animals were treated daily with 2% trehalose in SSV solution at 0.1 ml per 10 g body weight via oral gavage for a period of 31 days or SSV solution following the TBI. […] The second groups of animals underwent an identical dosing procedure but were treated with either SSV or maltose as a disaccharide control for trehalose. […] A further group of animals was pre-treated with trehalose prior to TBI. These pre-treated mice received a daily treatment of 2% trehalose in SSV solution at 0.1 ml per 10 g body weight via oral gavage for 7 days prior to TBI. Following TBI, these animals received SSV solution only for the remaining duration of the experiment.
A comprehensive description of laser ablation-inductively coupled plasma mass spectrometry (LA-ICPMS) procedure of TBI mouse tissue has been previously published. Briefly, Trehalose treated and non-treated animals (n=5 per group) were euthanized at 24 hr, 72 hr, 7 day, 14 day and 28 day-post TBI surgeries. Tissue was prepared as previously described and was subjected to LA-ICPMS.
For LA-ICPMS samples, statistical analysis was carried out in Prism 7 (Graph-Pad) software. Analysis was carried out with a two-tailed t test with the level of significance set at p=0.05. For multiple comparisons two-way ANOVA was used to identify significant differences between ipsilateral and contralateral ROI's. For western blot analysis, images were produced using Image Studio Lite (version 4.0.21, LI-COR Biosciences) and subsequent statistical analysis was carried out in Prism 7 (Graph-Pad). All behavioral analysis was performed using Prism 7 (Graph-Pad).

**Q.** What does the source list for `OC[C@H]1O[C@H](O[C@H]2O[C@H](CO)[C@@H](O)[C@H](O)[C@H]2O)[C@H](O)[C@@H](O)[C@@H]1O` [trehalose]?
**A.** copper concentration (day 7, contralateral ROI3 and entire hemisphere): significant increase; copper concentration, intra-day (day 7, ipsilateral ROI1, ROI2 and entire ipsilateral hemisphere, not observed in SSV mice): significant intra-day increases; iron (entire contralateral hemisphere at day fourteen): significant increase; iron (ipsilateral ROI1 at day 14, trehalose vs SSV): significant increase; overall change in zinc concentration (treated after TBI, any region, ipsilateral or contralateral cortex, vs SSV): no significant overall change; intra-day changes in zinc (treated after TBI, vs SSV): Neither were there any significant intra-day changes
